Values from PubChem BioAssay AID1259308 (NCATS, 2017).
Aim: 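Knock-downs that increase output of a recombinant reporter protein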 (primary screen). Cells: human HEK293 embryonic kidney cells stably expressing firefly luciferase (HEK-CMV-Luc2-Hygro). Knock-down reagent: single siRNA against human genes, 0.8 pmol siRNA per well. Time to read-out: 72 h. Detection: 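Reporter luminescence and viable-cell signal on separate replicate plates, given as percent of non-targeting control and median/MAD z-scores, plus per-cell luciferase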. Scale: total luciferase, z-score and total luciferase, % of control: higher = more reporter protein produced; luciferase per cell, z-score: higher = more reporter output per viable cell; viable cells, % of control: higher = more viable cells. Call rule: 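An siRNA counts as active if its total luciferase robust z-score exceeds 3; genes with two or more such siRNAs out of three were retested with fresh siRNAs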. Calls: active = raised luciferase; inactive = no rise.
The deposit covers about 59,000 reagents; below is a random part of them. About 1,510 of all reagents (2.6%) count as active. 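Calls use total luciferase alone and ignore viability, so some active siRNAs may act by altering cell number.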 Entries without a mark were called inactive. No sequences are given here.

target gene | PubChem SID | total luciferase, z-score | total luciferase, % of control | luciferase per cell, z-score | viable cells, % of control
ENPP2 | SID160714069 | 2.14 | 124 | 2.94 | 64.1
ENPP2 | SID160714070 | 0.00688 | 82 | -0.322 | 99.8
ENPP2 | SID160714071 | -0.594 | 70.1 | -0.661 | 93.2
MAPKAPK3 | SID160719430 | 4.67 (active) | 175 | 2.87 | 91.8
MAPKAPK3 | SID160719431 | -1.88 | 44.5 | -1.65 | 76.8
MAPKAPK3 | SID160719432 | -0.745 | 67.1 | -1.44 | 110
SLC35B3 | SID160739820 | 0.006 | 82 | -0.0904 | 93.8
SLC35B3 | SID160739821 | -0.0826 | 80.2 | 0.754 | 73.5
SLC35B3 | SID160739822 | 0.328 | 88.4 | 0.897 | 78
ZCWPW2 | SID160759198 | 6.58 (active) | 213 | 4.33 | 76
ZCWPW2 | SID160759199 | -0.216 | 77.6 | -0.144 | 90.1
ZCWPW2 | SID160759200 | -0.633 | 69.3 | -1.16 | 105
DMP1 | SID160754985 | 0.274 | 87.3 | 0.568 | 84
DMP1 | SID160754996 | -1.8 | 46.1 | -0.513 | 58.9
DMP1 | SID160755007 | 0.178 | 85.4 | 0.104 | 92.9
AMZ1 | SID160730663 | -0.533 | 71.3 | -0.112 | 82
AMZ1 | SID160759491 | -1.3 | 56 | -0.694 | 75.1
AMZ1 | SID160759492 | -0.405 | 73.8 | 0.312 | 76
OTOR | SID160745283 | -0.376 | 74.4 | -0.356 | 91.3
OTOR | SID160745284 | -0.321 | 75.5 | -0.635 | 99.7
OTOR | SID160745286 | 2.3 | 128 | 2.96 | 65.5
LOC442132 | SID160725459 | 2.3 | 128 | 1.86 | 87.3
LOC442132 | SID160725461 | -1.69 | 48.3 | -1.64 | 83.1
LOC442132 | SID160768134 | -0.554 | 70.9 | -0.116 | 81.6
MED4 | SID160739009 | 0.417 | 90.2 | 0.263 | 94
MED4 | SID160739010 | 0.288 | 87.6 | 2.07 | 56.8
MED4 | SID160739011 | -2.34 | 35.4 | -1.86 | 64.5
MYL1 | SID160777677 | 1.43 | 110 | 1.59 | 81.1
MYL1 | SID160777678 | 0.0719 | 83.3 | 0.37 | 84.5
MYL1 | SID160777679 | 0.0434 | 82.7 | 0.173 | 88.3
SUSD2 | SID160731552 | 3.7 (active) | 155 | 2.14 | 99
SUSD2 | SID160744948 | 1.61 | 114 | 1.58 | 84
SUSD2 | SID160744949 | -0.315 | 75.6 | -0.879 | 107
OR5H1 | SID160737958 | 0.248 | 86.8 | -0.288 | 105
OR5H1 | SID160737959 | -0.201 | 77.9 | 0.0122 | 86.8
OR5H1 | SID160737960 | -0.23 | 77.3 | -0.452 | 97.3
XAGE1B | SID160722365 | -1.71 | 47.9 | 1.81 | 33.2
XAGE1B | SID160722366 | 0.0114 | 82.1 | -0.574 | 107
XAGE1B | SID160735227 | 0.152 | 84.9 | -0.0819 | 97
ATP6AP2 | SID160726286 | 0.242 | 86.7 | -0.152 | 101
ATP6AP2 | SID160726296 | 0.865 | 99.1 | 0.778 | 90.2
ATP6AP2 | SID160726301 | -0.736 | 67.3 | -1.07 | 99.7
C16orf96 | SID160764597 | -0.69 | 68.2 | -0.3 | 82.4
C16orf96 | SID160764598 | -0.284 | 76.2 | 0.376 | 77.2
C16orf96 | SID160764599 | -0.374 | 74.4 | -0.311 | 90.3
ANKHD1-EIF4EBP3 | SID160767553 | -1.33 | 55.4 | -1.05 | 81.7
ANKHD1-EIF4EBP3 | SID160767554 | 1.69 | 115 | 1.66 | 83.3
ANKHD1-EIF4EBP3 | SID160767555 | 0.297 | 87.8 | -0.229 | 104
PLEKHG2 | SID160748088 | 1.35 | 109 | 1.04 | 92.4
PLEKHG2 | SID160748089 | -0.301 | 75.9 | -0.437 | 95.2
PLEKHG2 | SID160748090 | 4.73 (active) | 176 | 2.56 | 100
TFAP4 | SID160717941 | -2.29 | 36.4 | -2.47 | 77.9
TFAP4 | SID160717942 | -0.424 | 73.4 | -0.409 | 91.4
TFAP4 | SID160717943 | -1.37 | 54.7 | -1.53 | 91.4
FEZ1 | SID160722679 | -0.649 | 69 | -0.492 | 87.7
FEZ1 | SID160722680 | -1.46 | 52.9 | -0.523 | 67.8
FEZ1 | SID160735238 | -0.707 | 67.8 | -0.15 | 78.8
EEF1DP1 | SID160724777 | 0.237 | 86.6 | -0.936 | 124
EEF1DP1 | SID160756385 | 1.19 | 106 | 0.404 | 106
EEF1DP1 | SID160756387 | 0.376 | 89.4 | 0.0147 | 99.5
EGR4 | SID160758992 | 0.0546 | 83 | 0.123 | 89.8
EGR4 | SID160759003 | 0.492 | 91.7 | 0.375 | 92.8
EGR4 | SID160759013 | -0.678 | 68.4 | -1.26 | 106
RTP5 | SID160763491 | 2.18 | 125 | 2.55 | 71.5
RTP5 | SID160763492 | -0.327 | 75.4 | 0.976 | 65.1
RTP5 | SID160763493 | -1.26 | 56.9 | 0.645 | 53.7
CD300LD-AS1 | SID160758402 | 1.79 | 118 | 0.84 | 105
CD300LD-AS1 | SID160758403 | -2.21 | 37.9 | -2.35 | 78.7
CD300LD-AS1 | SID160758404 | -0.699 | 68 | -1.32 | 108
HDX | SID160757686 | 0.855 | 98.9 | 1.59 | 72.7
HDX | SID160757687 | 0.273 | 87.3 | 0.189 | 92.8
HDX | SID160757688 | -0.688 | 68.2 | -0.791 | 93.9
NIPA2 | SID160750888 | 0.546 | 92.7 | 1.11 | 77.5
NIPA2 | SID160750889 | -1.06 | 60.8 | -1.22 | 93.7
NIPA2 | SID160750890 | -0.982 | 62.3 | -1.06 | 92.2

Copied from the listing, 4 entries:
target gene | PubChem SID | total luciferase, z-score | total luciferase, % of control | luciferase per cell, z-score | viable cells, % of control
PLEKHG2 | SID160748089 | -0.301 | 75.9 | -0.437 | 95.2
PLEKHG2 | SID160748090 | 4.73 (active) | 176 | 2.56 | 100
TFAP4 | SID160717941 | -2.29 | 36.4 | -2.47 | 77.9
TFAP4 | SID160717942 | -0.424 | 73.4 | -0.409 | 91.4
